Laboratory results from patent publication US4996223A, “New organic compounds having opioid properties” (priority 1986, dated 1991).

Test system: mice
Test: animal or person
Assay type: in vivo
Conditions: Mus musculus, sc, read-out: ED50 Abdominal Constriction (Acetic acid)
Method: Analgesic activity was assessed using two methods in mice--the Hot Plate Test and the Abdominal Constriction Test (acetic acid). The test drug was given by subcutaneous injection and the results expressed as ED50 with 95% confidence intervals.
ED50 and 95% confidence intervals.
mg/kg, subcutaneous injection.

Compound `CN1CC[C@]23c4c5ccc(O)c4O[C@H]2[C@@H](O)C=C[C@H]3[C@H]1C5` [morphine, reference compound] has an ED50 of 0.41 mg/kg.
